Laboratory results taken from PMC4833305.
These are yes or no findings as the source states them, for the method shown. Some results given as binding are weak or reduced against the parent protein; the word gives no strength.

Molecular target: NEMO-FLAG (human), Q9Y6K9
Test: co-purification of the complex from cells with a FLAG-tagged subunit; IKK complex purified from NEMO-FLAG knock-in cells; silver staining and immunoblotting of the purified complex
Details: remark: other sources report otherwise

- binding: binds
B1: IKKα, O15111 1-745 (enzyme)
chain: MERPPGLRPGAGGPWEMRERLGTGGFGNVCLYQHRELDLKIAIKSCRLELSTKNRERWCHEIQIMKKLNHANVVKACDVPEELNILIHDVPLLAMEYCSGGDLRKLLNKPENCCGLKESQILSLLSDIGSGIRYLHENKIIHRDLKPENIVLQDVGGKIIHKIIDLGYAKDVDQGSLCTSFVGTLQYLAPELFENKPYTATVDYWSFGTMVFECIAGYRPFLHHLQPFTWHEKIKKKDPKCIFACEEMSGEVRFSSHLPQPNSLCSLVVEPMENWLQLMLNWDPQQRGGPVDLTLKQPRCFVLMDHILNLKIVHILNMTSAKIISFLLPPDESLHSLQSRIERETGINTGSQELLSETGISLDPRKPASQCVLDGVRGCDSYMVYLFDKSKTVYEGPFASRSLSDCVNYIVQDSKIQLPIIQLRKVWAEAVHYVSGLKEDYSRLFQGQRAAMLSLLRYNANLTKMKNTLISASQQLKAKLEFFHKSIQLDLERYSEQMTYGISSEKMLKAWKEMEEKAIHYAEVGVIGYLEDQIMSLHAEIMELQKSPYGRRQGDLMESLEQRAIDLYKQLKHRPSDHSYSDSTEMVKIIVHTVQSQDRVLKELFGHLSKLLGCKQKIIDLLPKVEVALSNIKEADNTVMFMQGKRQKEIWHLLKIACTQSSARSLVGSSLEGAVTPQTSAWLPPTSAEHDHSLSCVVTPQDGETSAQMIEENLNCLGHLSTIIHEANEEQGNSMMNLDWSWLTE
